Residue numbers refer to the chain shown, from its start. These are yes or no findings as the source states them, for the method shown. Some binding calls cover weakened binding; strength is not graded here.
B1: Antibody 13C4 (antibody, V domains shown)
VH: QIHLVQSGPELKKPGETVKISCKASGYTFTNYGMNWVKQAPGKALKWMGWMNTYIGEPTYADDFKGRFAFSLETSASTAYLQINNLKNEDMATYFCARRGDYASYYFDYWGQGTTLTVSS
VL: DIVLTQSPATLSVTPGDSVSLSCRASQNINNNLHWYHQKSHESPRLLIKYASQSISGIPSRVSGSGSGTDFTLSIVTVETEDFGMFFCQQSNSWPHTFGGGTKLEIR
B2: Antibody 10D7 (antibody, V domains shown)
VH: EVKLVESGGGLVKPGGSLKLSCAASGFTFSSYGMSWVRQTPEKRLEWVATISGAFSYTYYPDSVKGRFTISRDNAKNNLYLQMSSLRSEDTAFYYCARHDNSLYYAMDYWGQGTSVTVSS
VL: NVQITQSPSYLAASPGETITINCRTSKSITKYLAWYQEQPGKTNKLLIYSGSTLQSGIPSRFSGSGSGTDFTLTISSLEPEDFAMYYCQQHNEYPWTFGGGTKLEIK
B3: Antibody 15A6 (antibody, V domains shown)
VH: EVKLVESGGDLVKPGGSLKLSCAASGFTFSTYGMSWVRQTPEKRLEWVATISGSNSYTYYPDSVKGRFTISRDNAKNNLYLQMSSLRSEDTALYYCTRHENGYYFYAMDYWGQGTSVTVSS
VL: B2 VL with N1D, A12T, T25S, Q39K, N92S, K103R
B4: Antibody 7C12 (antibody, V domains shown)
VH: EVQLQQSGPDLVKPGASVKISCKASGYIFTDFNMHWVKQSHGKSLEWIGYIYPFNGGTGYNQKFENMATLTVDISSSTAYMEVRSLTSEDSAVYYCARRGGRGHFDYWGQGTTLTVSS
VL: DIQMTQSPASLSASVGETVTVTCRASGNIHNYLAWYQQKQGKSPQLLVYNAKTLADGVPSRFSGSGSGIQFSLKINSLQPEDFGSYYCQHFWNTPFTFGSGTKLEIK
B5: Antibody 13C5 (antibody, V domains shown)
VH: QVQLKQSGPGLVQPSQSLSITCTVSGFSLTTFGVHWVRQSPGKGLEWLGVIWRGGSTDYNAAFMSRLSITKDNSKSQVFFKMNSLQADDTAIYYCAKNPYQYGSSHYYAMDYWGQGTSVTVSS
VL: DIVMTQSPSSLSVSAGEKVTMSCKSSQSLLNSGNQKNYLAWYQQKPGQPPKLLIYGASTRESGVPDRFTGSGSGTVFTLTISSVQAEDLAVYYCQNDHILPFTFGSGTKLEIK
B6: Antibody 13D12 (antibody, V domains shown)
VH: EIQLQQSGPELVKPGASVKVSCKASGYAFTSHNIYWVKQSHGKSLEWIGYIDPYNGGSTYNQKFKDKATLTVDKSSSTAYMHLKSLTSEDSAVYYCARGDYRDFWGQGTTLTVSS
VL: DIQMTQTTSSLSASLGDRVTIRCSASQAINNYLNWYQQKPDGTVKLLIYYTSSLHSGVPSRFSGSGSGADYSLTISNLEPEDIATYYCQQYSHLPWTFGGGTTLEIK

target: LILRB3-His; test: ELISA on recombinant His-tagged protein, OD450

binding | Binder
binds | B1
binds | B2
binds | B3
binds | B4

target: LILRB1-His; test: ELISA on recombinant His-tagged protein, OD450

binding | Binder
binds | B1
binds | B2
binds | B3
binds | B5
binds | B4
binds | B6
